Assay [1] has as its target T1, HA-DVL1-WT (human full-length DVL1) (human) (UniProt O14640).
T1 sequence: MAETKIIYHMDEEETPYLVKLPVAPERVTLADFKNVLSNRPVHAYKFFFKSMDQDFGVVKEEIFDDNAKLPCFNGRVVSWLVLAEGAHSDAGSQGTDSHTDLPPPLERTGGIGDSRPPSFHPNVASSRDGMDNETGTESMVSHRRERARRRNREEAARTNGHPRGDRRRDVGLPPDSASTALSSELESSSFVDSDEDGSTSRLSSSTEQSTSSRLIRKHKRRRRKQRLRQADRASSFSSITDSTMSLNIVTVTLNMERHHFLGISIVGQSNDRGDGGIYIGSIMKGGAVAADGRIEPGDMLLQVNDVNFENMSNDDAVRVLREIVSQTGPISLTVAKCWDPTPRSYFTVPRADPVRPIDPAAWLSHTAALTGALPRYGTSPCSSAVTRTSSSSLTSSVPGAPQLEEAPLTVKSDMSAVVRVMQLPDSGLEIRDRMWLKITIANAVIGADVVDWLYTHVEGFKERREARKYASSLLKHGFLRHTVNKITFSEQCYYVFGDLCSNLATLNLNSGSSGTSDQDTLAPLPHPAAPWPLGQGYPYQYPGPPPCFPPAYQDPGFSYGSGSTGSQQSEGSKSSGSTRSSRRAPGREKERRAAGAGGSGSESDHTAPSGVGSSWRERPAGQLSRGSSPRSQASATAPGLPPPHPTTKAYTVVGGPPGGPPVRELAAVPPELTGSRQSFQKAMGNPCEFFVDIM
The assay can be described thus: co-IP; competition: HEK-293 co-transfected with FLAG-CLDN5, HA-DVL1-WT and increasing doses of HA-DVL1-CT plasmid; IP with FLAG antibody, blot for HA; 2% NP-40 buffer.

The target in assay [2] is T2, FLAG-CLDN5 (FLAG-tagged human full-length CLDN5) (human) (UniProt O00501).
T2 sequence: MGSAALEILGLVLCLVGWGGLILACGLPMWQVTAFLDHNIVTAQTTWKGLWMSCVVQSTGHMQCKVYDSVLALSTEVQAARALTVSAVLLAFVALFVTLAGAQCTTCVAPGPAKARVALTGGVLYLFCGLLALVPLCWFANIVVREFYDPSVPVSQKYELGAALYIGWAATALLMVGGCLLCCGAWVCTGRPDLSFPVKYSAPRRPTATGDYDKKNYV
In words: co-IP; HEK-293 co-transfected with FLAG-CLDN5 or FLAG-CLDN5-ΔPDZBM and HA-DVL1 or HA-DVL1-ΔC7; IP with FLAG antibody, blot for FLAG, HA or endogenous ZO-1; 2% NP-40 buffer.

In assay [3] the target is FLAG-CLDN5-ΔPDZBM (CLDN5 lacking the last four amino acids) (human). The assay is described as above.

These are yes or no findings as the source states them, for the method shown. Binding seen in cells or lysates may run through a third protein. A result given as binding can be weak or reduced; the word gives no strength. Sequences can lack the tags named with a protein.

Consider “HA-DVL1-CT (last 169 amino acids of the C-terminus of DVL1) (human) (domain or fragment)”, for which, in assay [1], the binding result is on record as “binds”.

As to “HA-DVL1-ΔC7 (DVL1 lacking the 7 C-terminal amino acids, PDZ-BM) (human) (domain or fragment)”, the binding entry in assay [2] is “binds”.

B1: HA-DVL1-WT (human full-length DVL1) (protein, UniProt O14640 1-695)
chain: T1 sequence
For the molecule B1, the binding result in assay [3] is given as “binds”.

These data come from publication PMC10571979.
